{
  "source": "patent US8133482B2",
  "about": "(The Trustees of the University of Pennsylvania, priority 2003, dated 2012)",
  "assay": "Fmoc solid-phase peptide synthesis; sieber amide resin; HBTU/HOBt",
  "settings": "whole synthesis, HPLC",
  "data": [
    {"substance": "GDEVDGSGK(Mtt)", "values": [
      {"measurement": "purity (crude or final not stated)", "value": "more than 90%"}
    ]}
  ]
}
